Consider two substances from paper PMC11265163.

Amino acid sequences for entries named in this document (tags omitted).
UniProt Q9UKK3: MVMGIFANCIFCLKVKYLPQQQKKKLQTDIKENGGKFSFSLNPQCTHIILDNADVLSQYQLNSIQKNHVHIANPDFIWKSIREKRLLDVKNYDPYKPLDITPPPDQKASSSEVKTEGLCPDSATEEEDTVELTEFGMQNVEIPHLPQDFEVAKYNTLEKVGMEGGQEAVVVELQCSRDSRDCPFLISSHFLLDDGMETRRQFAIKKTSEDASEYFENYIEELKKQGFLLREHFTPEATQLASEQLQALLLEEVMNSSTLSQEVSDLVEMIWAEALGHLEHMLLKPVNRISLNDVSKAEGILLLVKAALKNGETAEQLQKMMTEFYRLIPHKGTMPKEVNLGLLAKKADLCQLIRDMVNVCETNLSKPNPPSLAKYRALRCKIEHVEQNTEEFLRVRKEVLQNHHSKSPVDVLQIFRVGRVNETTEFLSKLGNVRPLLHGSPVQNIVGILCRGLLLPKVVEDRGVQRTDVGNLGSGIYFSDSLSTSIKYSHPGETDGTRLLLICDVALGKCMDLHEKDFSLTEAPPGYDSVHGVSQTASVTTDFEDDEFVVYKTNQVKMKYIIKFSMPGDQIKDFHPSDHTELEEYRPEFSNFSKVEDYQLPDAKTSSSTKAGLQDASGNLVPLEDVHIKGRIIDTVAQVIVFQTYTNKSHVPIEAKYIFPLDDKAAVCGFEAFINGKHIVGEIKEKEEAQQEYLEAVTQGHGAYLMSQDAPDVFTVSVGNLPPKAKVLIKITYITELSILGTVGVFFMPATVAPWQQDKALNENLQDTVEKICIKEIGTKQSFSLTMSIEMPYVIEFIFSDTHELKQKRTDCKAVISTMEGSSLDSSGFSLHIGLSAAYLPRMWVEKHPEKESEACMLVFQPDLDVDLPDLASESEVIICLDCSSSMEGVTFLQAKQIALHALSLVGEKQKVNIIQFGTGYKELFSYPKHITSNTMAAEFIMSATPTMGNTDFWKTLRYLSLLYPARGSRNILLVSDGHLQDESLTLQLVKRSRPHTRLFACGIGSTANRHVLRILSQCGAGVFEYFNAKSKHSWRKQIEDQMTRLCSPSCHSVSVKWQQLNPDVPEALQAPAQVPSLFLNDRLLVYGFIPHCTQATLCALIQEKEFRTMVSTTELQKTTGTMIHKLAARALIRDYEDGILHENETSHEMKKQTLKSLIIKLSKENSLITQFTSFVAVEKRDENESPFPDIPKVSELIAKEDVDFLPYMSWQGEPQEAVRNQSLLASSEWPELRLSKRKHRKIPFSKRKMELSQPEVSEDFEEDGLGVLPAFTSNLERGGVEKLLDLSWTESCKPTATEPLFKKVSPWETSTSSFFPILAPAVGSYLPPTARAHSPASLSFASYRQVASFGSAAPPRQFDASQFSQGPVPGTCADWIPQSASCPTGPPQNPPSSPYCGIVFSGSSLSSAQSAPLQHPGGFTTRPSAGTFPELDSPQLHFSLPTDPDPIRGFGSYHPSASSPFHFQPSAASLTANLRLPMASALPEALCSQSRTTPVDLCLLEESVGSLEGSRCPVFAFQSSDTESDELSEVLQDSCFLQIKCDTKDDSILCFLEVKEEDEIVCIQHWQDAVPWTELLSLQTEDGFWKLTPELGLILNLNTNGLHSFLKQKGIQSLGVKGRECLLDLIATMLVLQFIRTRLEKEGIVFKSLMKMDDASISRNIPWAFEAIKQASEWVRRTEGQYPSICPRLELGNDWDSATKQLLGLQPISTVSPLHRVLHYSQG
UniProt Q15154: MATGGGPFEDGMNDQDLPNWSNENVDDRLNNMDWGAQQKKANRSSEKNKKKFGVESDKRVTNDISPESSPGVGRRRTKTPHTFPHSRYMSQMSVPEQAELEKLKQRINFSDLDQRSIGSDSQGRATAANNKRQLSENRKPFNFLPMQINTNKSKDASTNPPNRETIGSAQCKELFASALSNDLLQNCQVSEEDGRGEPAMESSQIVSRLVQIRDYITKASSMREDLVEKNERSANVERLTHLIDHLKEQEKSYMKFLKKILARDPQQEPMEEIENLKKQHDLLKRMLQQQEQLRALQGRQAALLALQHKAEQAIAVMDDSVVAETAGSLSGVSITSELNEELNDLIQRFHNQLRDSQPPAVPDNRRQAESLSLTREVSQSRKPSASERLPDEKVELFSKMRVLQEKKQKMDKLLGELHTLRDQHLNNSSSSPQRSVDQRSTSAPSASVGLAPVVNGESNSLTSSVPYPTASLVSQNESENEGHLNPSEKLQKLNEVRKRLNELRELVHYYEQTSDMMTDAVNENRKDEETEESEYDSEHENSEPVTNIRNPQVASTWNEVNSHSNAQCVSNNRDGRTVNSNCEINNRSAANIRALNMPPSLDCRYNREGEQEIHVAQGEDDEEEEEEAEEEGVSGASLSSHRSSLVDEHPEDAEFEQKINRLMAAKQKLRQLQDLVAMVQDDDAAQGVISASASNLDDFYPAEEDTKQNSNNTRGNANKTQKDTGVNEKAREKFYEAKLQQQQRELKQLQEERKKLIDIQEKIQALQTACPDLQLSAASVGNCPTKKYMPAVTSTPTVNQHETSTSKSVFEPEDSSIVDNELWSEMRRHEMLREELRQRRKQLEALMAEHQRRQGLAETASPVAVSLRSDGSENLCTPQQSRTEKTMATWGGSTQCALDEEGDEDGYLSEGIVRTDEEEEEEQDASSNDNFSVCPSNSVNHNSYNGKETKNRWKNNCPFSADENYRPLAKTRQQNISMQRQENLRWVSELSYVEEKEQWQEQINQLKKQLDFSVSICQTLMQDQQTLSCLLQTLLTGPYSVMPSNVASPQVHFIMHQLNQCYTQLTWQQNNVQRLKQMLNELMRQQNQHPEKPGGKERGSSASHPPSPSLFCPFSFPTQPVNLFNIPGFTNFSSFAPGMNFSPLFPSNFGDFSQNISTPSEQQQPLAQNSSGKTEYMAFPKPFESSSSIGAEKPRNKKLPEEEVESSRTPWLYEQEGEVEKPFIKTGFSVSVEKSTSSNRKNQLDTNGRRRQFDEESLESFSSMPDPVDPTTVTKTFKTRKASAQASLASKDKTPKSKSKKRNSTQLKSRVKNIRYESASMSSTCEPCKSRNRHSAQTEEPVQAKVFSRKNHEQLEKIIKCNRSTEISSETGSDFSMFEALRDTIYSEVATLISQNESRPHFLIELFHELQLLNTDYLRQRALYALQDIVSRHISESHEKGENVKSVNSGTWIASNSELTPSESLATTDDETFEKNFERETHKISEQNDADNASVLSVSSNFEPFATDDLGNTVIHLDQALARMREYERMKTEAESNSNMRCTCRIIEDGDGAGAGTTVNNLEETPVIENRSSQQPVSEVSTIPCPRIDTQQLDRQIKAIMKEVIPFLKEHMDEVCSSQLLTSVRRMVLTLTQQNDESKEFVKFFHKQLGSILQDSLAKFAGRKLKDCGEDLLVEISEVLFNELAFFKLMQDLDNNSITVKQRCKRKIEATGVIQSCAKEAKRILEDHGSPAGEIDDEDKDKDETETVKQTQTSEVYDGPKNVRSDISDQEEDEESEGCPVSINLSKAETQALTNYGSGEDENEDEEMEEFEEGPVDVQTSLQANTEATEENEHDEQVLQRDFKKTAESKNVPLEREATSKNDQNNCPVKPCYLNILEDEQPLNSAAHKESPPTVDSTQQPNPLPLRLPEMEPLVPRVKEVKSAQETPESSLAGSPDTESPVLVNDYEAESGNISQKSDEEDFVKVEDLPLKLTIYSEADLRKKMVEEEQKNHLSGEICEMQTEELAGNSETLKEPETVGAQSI
UniProt P08670: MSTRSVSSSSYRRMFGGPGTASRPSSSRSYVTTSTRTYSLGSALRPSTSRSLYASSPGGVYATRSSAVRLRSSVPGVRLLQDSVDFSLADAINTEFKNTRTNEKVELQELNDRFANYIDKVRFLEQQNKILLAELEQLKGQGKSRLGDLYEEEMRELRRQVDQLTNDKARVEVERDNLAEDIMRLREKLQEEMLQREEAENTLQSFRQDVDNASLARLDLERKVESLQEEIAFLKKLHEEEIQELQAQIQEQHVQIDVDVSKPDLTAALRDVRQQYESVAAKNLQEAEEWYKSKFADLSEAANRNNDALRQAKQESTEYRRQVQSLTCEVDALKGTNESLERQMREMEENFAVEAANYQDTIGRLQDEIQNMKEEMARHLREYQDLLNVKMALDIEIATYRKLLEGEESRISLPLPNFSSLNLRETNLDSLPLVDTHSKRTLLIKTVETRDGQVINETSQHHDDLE
UniProt Q14764: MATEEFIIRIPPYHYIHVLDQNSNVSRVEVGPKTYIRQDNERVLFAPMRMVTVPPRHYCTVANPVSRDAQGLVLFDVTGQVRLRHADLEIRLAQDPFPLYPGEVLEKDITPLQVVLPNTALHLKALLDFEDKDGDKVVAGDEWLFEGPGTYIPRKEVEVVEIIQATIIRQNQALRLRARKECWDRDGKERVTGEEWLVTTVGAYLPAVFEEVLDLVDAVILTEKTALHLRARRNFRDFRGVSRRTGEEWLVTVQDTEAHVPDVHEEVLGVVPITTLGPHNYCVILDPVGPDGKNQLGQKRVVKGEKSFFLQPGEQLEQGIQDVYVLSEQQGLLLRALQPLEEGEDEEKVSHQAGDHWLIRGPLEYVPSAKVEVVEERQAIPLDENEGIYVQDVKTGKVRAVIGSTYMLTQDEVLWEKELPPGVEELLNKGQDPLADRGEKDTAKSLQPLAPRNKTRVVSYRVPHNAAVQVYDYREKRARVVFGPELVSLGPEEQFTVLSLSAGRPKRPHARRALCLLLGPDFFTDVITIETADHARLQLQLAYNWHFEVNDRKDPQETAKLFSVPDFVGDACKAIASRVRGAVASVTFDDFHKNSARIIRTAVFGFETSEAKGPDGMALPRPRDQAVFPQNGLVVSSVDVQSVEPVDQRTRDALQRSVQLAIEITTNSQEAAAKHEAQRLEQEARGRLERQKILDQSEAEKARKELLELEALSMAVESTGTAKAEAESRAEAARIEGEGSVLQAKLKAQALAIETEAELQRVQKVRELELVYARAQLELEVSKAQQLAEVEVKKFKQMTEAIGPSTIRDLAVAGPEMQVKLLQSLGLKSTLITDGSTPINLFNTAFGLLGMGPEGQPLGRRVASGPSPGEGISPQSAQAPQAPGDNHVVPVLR

Assay in all cases: co-IP; endogenous proteins in whole-cell lysates (iSAEC-K; also A549, A611, A563, A653); lysis in 10 mM Tris-HCl pH 7.5, 150 mM NaCl, 0.5% NP-40, 0.25% sodium deoxycholate, 0.5 mM EDTA with 2 mM MgCl2 and 50 units/mL benzonase; 1 mg protein, 4 ug antibody overnight, Protein A/G Dynabeads …
Assay [1] addresses PARP4 (human (endogenous in iSAEC-K, A549 and patient-derived lung cell lines)) (UniProt Q9UKK3).
In assay [2] the target is T1, keratin 18 (KRT18) (human (endogenous in iSAEC-K)) (UniProt P05783).
T1 sequence: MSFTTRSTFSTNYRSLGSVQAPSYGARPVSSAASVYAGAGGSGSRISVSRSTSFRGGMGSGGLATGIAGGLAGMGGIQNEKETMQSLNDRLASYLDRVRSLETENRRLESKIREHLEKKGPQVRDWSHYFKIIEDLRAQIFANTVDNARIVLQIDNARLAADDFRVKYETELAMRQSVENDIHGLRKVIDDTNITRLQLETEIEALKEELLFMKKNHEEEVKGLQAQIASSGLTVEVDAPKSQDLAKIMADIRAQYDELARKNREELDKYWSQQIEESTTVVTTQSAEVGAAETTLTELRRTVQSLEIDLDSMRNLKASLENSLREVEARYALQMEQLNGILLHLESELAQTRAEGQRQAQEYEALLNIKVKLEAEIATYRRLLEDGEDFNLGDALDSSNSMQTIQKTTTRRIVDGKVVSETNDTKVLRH

Assay [3] addresses pericentrin (PCNT) (human (endogenous in iSAEC-K)) (UniProt O95613).
In assay [4] the target is pericentriolar material 1 protein (PCM1) (human (endogenous in iSAEC-K)) (UniProt Q15154).
Assay [5] addresses vimentin (VIM) (human (endogenous in iSAEC-K)) (UniProt P08670).

These are yes or no findings as the source states them, for the method shown. Binding seen in cells or lysates may run through a third protein. Some results given as binding are weak or reduced against the parent protein; the word gives no strength.

As to “major vault protein (MVP) (from UniProt Q14764 1-893)”, the binding entry in assay [1] is on record as “binds”.

For the substance PARP4 (from UniProt Q9UKK3 1-1724), the binding result in assay [2], in assay [3], in assay [4] and in assay [5] was “binds” in each case.
